# Data as given in the supplement of paper PMC8728848.
# The other results are listed elsewhere or left out.
# Key:
# Experiment in all cases: glycan array binding signal (z-score within array); higher = stronger binding
# Conditions in all cases: glycan notation: IUPAC condensed, linker removed
# [1] = target: Man(a1-3)[Man(a1-6)]Man(a1-6)[Man(a1-3)]Man
# Procedure, shortened: (§1)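 Glycan array data came from 3228 arrays in the Consortium for Functional Glycomics database, and only arrays with an available protein sequence were kept. Glycan names were put into IUPAC-condensed notation, and columns mapping to the same glycan were averaged. The binding signal is a within-array Z-score, averaged across arrays of one protein sequence run at different concentrations or buffers and across linkers. A negative Z-score can be read as non-binding.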
# [2] = target: Man(a1-3)[Man(a1-6)]Man(a1-6)[Man(a1-3)]Man(b1-4)GlcNAc(b1-4)GlcNAc
# Procedure, shortened: as §1
# [3] = target: Man(a1-3)[Man(a1-6)]Man(b1-4)GlcNAc(b1-4)GlcNAc
# Procedure, shortened: as §1
# [4] = target: Man(a1-3)[Man(a1-6)]Man(b1-4)GlcNAc(b1-4)[Fuc(a1-6)]GlcNAc
# Procedure, shortened: as §1
# Man(a1-6)Man = target: Man(a1-6)Man
# Procedure, shortened: as §1
# Man(b1-4)GlcNAc = target: Man(b1-4)GlcNAc
# Procedure, shortened: as §1
# MurNAc(b1-4)GlcNAc = target: MurNAc(b1-4)GlcNAc
# Procedure, shortened: as §1
# Neu5Ac(a2-3)Gal = target: Neu5Ac(a2-3)Gal
# Procedure, shortened: as §1
# [5] = target: Neu5Ac(a2-3)Gal(b1-3)GalNAc
# Procedure, shortened: as §1
# [6] = target: Neu5Ac(a2-3)Gal(b1-3)GalNAc(b1-3)Gal(a1-4)Gal(b1-4)Glc
# Procedure, shortened: as §1
# [7] = target: Neu5Ac(a2-3)Gal(b1-3)GalNAc(b1-4)[Neu5Ac(a2-3)]Gal(b1-4)Glc
# Procedure, shortened: as §1
# [8] = target: Neu5Ac(a2-3)Gal(b1-3)GalNAc(b1-4)[Neu5Ac(a2-8)Neu5Ac(a2-3)]Gal(b1-4)Glc
# Procedure, shortened: as §1
# [9] = target: Neu5Ac(a2-3)Gal(b1-3)GalNAc6S
# Procedure, shortened: as §1
# [10] = target: Neu5Ac(a2-3)Gal(b1-3)GlcNAc
# Procedure, shortened: as §1
# [11] = target: Neu5Ac(a2-3)Gal(b1-3)GlcNAc(b1-2)Man
# Procedure, shortened: as §1
# [12] = target: Neu5Ac(a2-3)Gal(b1-3)GlcNAc(b1-2)Man(a1-3)[GlcNAc(b1-4)][Neu5Ac(a2-3)Gal(b1-3)GlcNAc(b1-2)Man(a1-6)]Man(b1-4)GlcNAc(b1-4)GlcNAc
# Procedure, shortened: as §1
# [13] = target: Neu5Ac(a2-3)Gal(b1-3)GlcNAc(b1-2)Man(a1-3)[Neu5Ac(a2-3)Gal(b1-3)GlcNAc(b1-2)Man(a1-6)]Man(b1-4)GlcNAc(b1-4)GlcNAc
# Procedure, shortened: as §1
# [14] = target: Neu5Ac(a2-3)Gal(b1-3)GlcNAc(b1-3)Gal(b1-3)GlcNAc
# Procedure, shortened: as §1
# [15] = target: Neu5Ac(a2-3)Gal(b1-3)GlcNAc(b1-3)Gal(b1-4)GlcNAc
# Procedure, shortened: as §1
# [16] = target: Neu5Ac(a2-3)Gal(b1-3)GlcNAc(b1-3)GalNAc
# Procedure, shortened: as §1
# [17] = target: Neu5Ac(a2-3)Gal(b1-3)GlcNAc(b1-4)Gal(b1-4)Glc
# Procedure, shortened: as §1
# [18] = target: Neu5Ac(a2-3)Gal(b1-3)GlcNAc(b1-6)GalNAc
# Procedure, shortened: as §1
# [19] = target: Neu5Ac(a2-3)Gal(b1-3)GlcNAc6S
# Procedure, shortened: as §1
# [20] = target: Neu5Ac(a2-3)Gal(b1-3)[Fuc(a1-4)]GlcNAc
# Procedure, shortened: as §1
# [21] = target: Neu5Ac(a2-3)Gal(b1-3)[Fuc(a1-4)]GlcNAc(b1-3)Gal(b1-3)[Fuc(a1-4)]GlcNAc
# Procedure, shortened: as §1
# [22] = target: Neu5Ac(a2-3)Gal(b1-3)[Fuc(a1-4)]GlcNAc(b1-3)Gal(b1-4)[Fuc(a1-3)]GlcNAc
# Procedure, shortened: as §1
# [23] = target: Neu5Ac(a2-3)Gal(b1-3)[GlcNAc(b1-6)]GalNAc
# Procedure, shortened: as §1
# [24] = target: Neu5Ac(a2-3)Gal(b1-3)[Neu5Ac(a2-6)]GalNAc
# Procedure, shortened: as §1
# [25] = target: Neu5Ac(a2-3)Gal(b1-3)[Neu5Ac(a2-6)]GlcNAc(b1-3)[Fuc(a1-3)[Gal(b1-4)]GlcNAc(b1-6)]Gal(b1-4)Glc
# Procedure, shortened: as §1
# [26] = target: Neu5Ac(a2-3)Gal(b1-3)]Neu5Ac(a2-3)Gal(b1-4)]GlcNAc
# Procedure, shortened: as §1
# Neu5Ac(a2-3)Gal(b1-4)Glc = target: Neu5Ac(a2-3)Gal(b1-4)Glc
# Procedure, shortened: as §1
# [27] = target: Neu5Ac(a2-3)Gal(b1-4)GlcNAc
# Procedure, shortened: as §1
# [28] = target: Neu5Ac(a2-3)Gal(b1-4)GlcNAc(b1-2)Man
# Procedure, shortened: as §1
# [29] = target: Neu5Ac(a2-3)Gal(b1-4)GlcNAc(b1-2)Man(a1-3)[GlcNAc(b1-4)][Neu5Ac(a2-3)Gal(b1-4)GlcNAc(b1-2)Man(a1-6)]Man(b1-4)GlcNAc(b1-4)GlcNAc
# Procedure, shortened: as §1
# [30] = target: Neu5Ac(a2-3)Gal(b1-4)GlcNAc(b1-2)Man(a1-3)[Neu5Ac(a2-3)Gal(b1-4)GlcNAc(b1-2)Man(a1-6)]Man(b1-4)GlcNAc(b1-4)GlcNAc
# Procedure, shortened: as §1
# [31] = target: Neu5Ac(a2-3)Gal(b1-4)GlcNAc(b1-2)Man(a1-3)[Neu5Ac(a2-3)Gal(b1-4)GlcNAc(b1-2)Man(a1-6)]Man(b1-4)GlcNAc(b1-4)[Fuc(a1-6)]GlcNAc
# Procedure, shortened: as §1
# [32] = target: Neu5Ac(a2-3)Gal(b1-4)GlcNAc(b1-2)Man(a1-3)[Neu5Ac(a2-6)Gal(b1-4)GlcNAc(b1-2)Man(a1-6)]Man(b1-4)GlcNAc(b1-4)GlcNAc
# Procedure, shortened: as §1
# [33] = target: Neu5Ac(a2-3)Gal(b1-4)GlcNAc(b1-2)[Neu5Ac(a2-3)Gal(b1-4)GlcNAc(b1-4)]Man(a1-3)[GlcNAc(b1-4)][Neu5Ac(a2-3)Gal(b1-4)GlcNAc(b1-2)[Neu5Ac(a2-3)Gal(b1-4)GlcNAc(b1-6)]Man(a1-6)]Man(b1-4)GlcNAc(b1-4)GlcNAc
# Procedure, shortened: as §1
binder,measurement,setting,value
PX14375A-pdi-503-28-503 (Parabacteroides distasonis) (protein) PLGSPEAGDISEERQAFLRLTAVYSVMKDFRYTWSMQCFGDVLSNDATYSGSSNDAQTFTLLENYQYQADHTEILNKYRYSYQCINKANLFIRDMEMADDALFSKYDKEQMIGEAKFIRAYTYFELVKTFGGVPCYTGVLDLDHERLGRASVEEIYSVIEQDLNDAVSVLPKKSEVANYESSYAGRITKGAAIAMQTRIYLYEKKYDEVKKAFEKFQNECGGEYSLVAPEDYTWQFSLDGEHCSSSILEVNMYNSSTQSSYNVNNGNRHVLMSMPRNMTIGFGCAQPTQALADAYDAEGDVIRKKTTLLSTEEAIEIETAAKGDVAPVTDDRTGWYNRKLYLAPGQREENRGNNQPTNLRLIRLAEVYLNYAEACYFSGDIANAQKYLNEVRSHVNLAPKNHTGSQLFEDIMNERHLEFGMEGFRFFDVVRVGWGEKVFNGTKKAEFGAKTPFSAGAEVLPIPQTEIDISDGLITN,glycan array binding signal (z-score),[1],0.539
same,glycan array binding signal (z-score),[2],-0.124
same,glycan array binding signal (z-score),[3],-0.325
same,glycan array binding signal (z-score),[4],-0.428
same,glycan array binding signal (z-score),Man(a1-6)Man,0.326
same,glycan array binding signal (z-score),Man(b1-4)GlcNAc,0.292
same,glycan array binding signal (z-score),MurNAc(b1-4)GlcNAc,1.31
same,glycan array binding signal (z-score),Neu5Ac(a2-3)Gal,-0.52
same,glycan array binding signal (z-score),[5],-0.136
same,glycan array binding signal (z-score),[6],0.101
same,glycan array binding signal (z-score),[7],-0.284
same,glycan array binding signal (z-score),[8],-0.907
same,glycan array binding signal (z-score),[9],-0.28
same,glycan array binding signal (z-score),[10],-0.623
same,glycan array binding signal (z-score),[11],0.999
same,glycan array binding signal (z-score),[12],-0.42
same,glycan array binding signal (z-score),[13],0.826
same,glycan array binding signal (z-score),[14],-0.302
same,glycan array binding signal (z-score),[15],0.31
same,glycan array binding signal (z-score),[16],0.031
same,glycan array binding signal (z-score),[17],-0.815
same,glycan array binding signal (z-score),[18],-0.059
same,glycan array binding signal (z-score),[19],-0.911
same,glycan array binding signal (z-score),[20],-0.16
same,glycan array binding signal (z-score),[21],-0.148
same,glycan array binding signal (z-score),[22],0.243
same,glycan array binding signal (z-score),[23],-0.096
same,glycan array binding signal (z-score),[24],-0.125
same,glycan array binding signal (z-score),[25],-0.261
same,glycan array binding signal (z-score),[26],-0.21
same,glycan array binding signal (z-score),Neu5Ac(a2-3)Gal(b1-4)Glc,0.297
same,glycan array binding signal (z-score),[27],-0.063
same,glycan array binding signal (z-score),[28],0.112
same,glycan array binding signal (z-score),[29],-0.283
same,glycan array binding signal (z-score),[30],-0.508
same,glycan array binding signal (z-score),[31],-0.535
same,glycan array binding signal (z-score),[32],0.248
same,glycan array binding signal (z-score),[33],0.065
